PubChem BioAssay AID602196, INSERM, 2012

Purpose: 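Knock-downs that protect lung cancer cells from cisplatin or sensitise them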
Cell system: human A549 lung cancer cells
Knock-down reagent: siRNA pair against human genes
Time to read-out: 48 h transfection before cisplatin; time from cisplatin to read-out not stated
Challenge: cisplatin at a dose killing half of control-siRNA cells; exact dose and duration not given
Detection: 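Cisplatin cell death as a shift from the 50% death seen with control siRNA; siRNAs toxic or growth-blocking alone scored 0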
Reading the numbers: two-siRNA summed score (-2 to +2): higher = both siRNAs protect from cisplatin killing; -2 means both sensitise; mean protection from cisplatin (shift in death): higher = protection from cisplatin killing
Rule for the call: 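Each siRNA scores 0 if harmful alone by LDH or WST-1, otherwise +1 if it reduces and -1 if it increases cisplatin killing; a gene is active when both siRNAs agree (sum +2 or -2)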
Calls: active = both siRNAs shift cisplatin killing the same way; inactive = no consistent shift, or siRNA harmful alone
Here is a random part of about 23,000 deposited reagents. In the full data, 455 (2%) were called active. 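Active includes both protection and sensitisation; some change values fall well beyond the stated -50 to +50 range.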 A number with no mark means an inactive call. The numbers tell different reagents against one gene apart. Not all columns of the deposit are shown. No sequences are given here. Not stated in the record: the amount of reagent.

After knock-down of SLC7A9, the screen gave two-siRNA summed score (-2 to +2) = 0; mean protection from cisplatin (shift in death) (%) = 5.7. With knock-down of MDGA2 the results were two-siRNA summed score (-2 to +2) = 0; mean protection from cisplatin (shift in death) (%) = 6. After knock-down of YTHDF2 the results were two-siRNA summed score (-2 to +2) = 0; mean protection from cisplatin (shift in death) (%) = 4.5. After knock-down of LINC00304 the results were two-siRNA summed score (-2 to +2) = 0; mean protection from cisplatin (shift in death) (%) = -6.8. IFT22 gave two-siRNA summed score (-2 to +2) = 0; mean protection from cisplatin (shift in death) (%) = 0.9. Depletion of ARMC5 came out at: two-siRNA summed score (-2 to +2) = 0; mean protection from cisplatin (shift in death) (%) = 1.3.

With knock-down of ZNF512B, the screen gave two-siRNA summed score (-2 to +2) = 0; mean protection from cisplatin (shift in death) (%) = -4.1. With knock-down of CRYGC the results were two-siRNA summed score (-2 to +2) = 0; mean protection from cisplatin (shift in death) (%) = 5.6. After knock-down of IPPK the results were two-siRNA summed score (-2 to +2) = 0; mean protection from cisplatin (shift in death) (%) = 3.9. Against EBPL, the entry reads two-siRNA summed score (-2 to +2) = 1; mean protection from cisplatin (shift in death) (%) = 1.7. After knock-down of LOC442181, the record shows two-siRNA summed score (-2 to +2) = 1; mean protection from cisplatin (shift in death) (%) = 7.7. Knock-down of TRIM44 gave: two-siRNA summed score (-2 to +2) = 0; mean protection from cisplatin (shift in death) (%) = -4.9.

Knock-down of PIDD1 came out at: two-siRNA summed score (-2 to +2) = 0; mean protection from cisplatin (shift in death) (%) = 3.7. Knock-down of LOC441443 gave: two-siRNA summed score (-2 to +2) = 0; mean protection from cisplatin (shift in death) (%) = 4.7. For DCSTAMP the deposit lists two-siRNA summed score (-2 to +2) = 0; mean protection from cisplatin (shift in death) (%) = 10.2. Knock-down of DNAJC11 resulted in: two-siRNA summed score (-2 to +2) = 0; mean protection from cisplatin (shift in death) (%) = -1.4. With knock-down of FKBP4P7, the screen gave two-siRNA summed score (-2 to +2) = 0; mean protection from cisplatin (shift in death) (%) = 4.4. After knock-down of CS the results were two-siRNA summed score (-2 to +2) = 1; mean protection from cisplatin (shift in death) (%) = 4.6.

DNAJA1 gave two-siRNA summed score (-2 to +2) = -1; mean protection from cisplatin (shift in death) (%) = -6.2. Silencing of DDX17 resulted in: two-siRNA summed score (-2 to +2) = 0; mean protection from cisplatin (shift in death) (%) = 1.4. With knock-down of TPGS2, the screen gave two-siRNA summed score (-2 to +2) = 0; mean protection from cisplatin (shift in death) (%) = 8.1. Silencing of CHAC1 gave: two-siRNA summed score (-2 to +2) = 0; mean protection from cisplatin (shift in death) (%) = 9.5. Depletion of LCA5 came out at: two-siRNA summed score (-2 to +2) = 0; mean protection from cisplatin (shift in death) (%) = -9. For LOC441995, the values are two-siRNA summed score (-2 to +2) = 0; mean protection from cisplatin (shift in death) (%) = 14.1.

Against MECOM #1, the values are two-siRNA summed score (-2 to +2) = -1; mean protection from cisplatin (shift in death) (%) = -9.3. MECOM #2 scored two-siRNA summed score (-2 to +2) = 0; mean protection from cisplatin (shift in death) (%) = 8.3. FA2H gave two-siRNA summed score (-2 to +2) = -1; mean protection from cisplatin (shift in death) (%) = -1.9. VEZT gave two-siRNA summed score (-2 to +2) = 0; mean protection from cisplatin (shift in death) (%) = -2.8. Knock-down of LOC145660 resulted in: two-siRNA summed score (-2 to +2) = 0; mean protection from cisplatin (shift in death) (%) = -1.1. For KRT1 the deposit lists two-siRNA summed score (-2 to +2) = -1; mean protection from cisplatin (shift in death) (%) = -20.3.

OR4C15 scored two-siRNA summed score (-2 to +2) = -1; mean protection from cisplatin (shift in death) (%) = -10.1.

Copied from above (5 entries):
LOC441995 → two-siRNA summed score (-2 to +2): 0; mean protection from cisplatin (shift in death) (%): 14.1
MECOM #1 → two-siRNA summed score (-2 to +2): -1; mean protection from cisplatin (shift in death) (%): -9.3
MECOM #2 → two-siRNA summed score (-2 to +2): 0; mean protection from cisplatin (shift in death) (%): 8.3
FA2H → two-siRNA summed score (-2 to +2): -1; mean protection from cisplatin (shift in death) (%): -1.9
VEZT → two-siRNA summed score (-2 to +2): 0; mean protection from cisplatin (shift in death) (%): -2.8
